Results are given in words; binding and its absence hold for the method and conditions named. In cells and extracts the contact can be indirect. Some binding calls cover weakened binding; strength is not graded here.
What was measured:
His-tagged c-Myc = His-tagged c-Myc (UniProt P01106); test: co-IP; HEK-293 T cells transfected with HA-TRIM55 and His-c-Myc; IP with anti-HA or anti-His antibody; western blot
[1] = biological target: endogenous c-Myc (human (endogenous in SW620 and SW480)) (UniProt P01106); test: co-IP; SW620 or SW480 cell lysate; IP with anti-TRIM55 (4°C overnight, protein A/G beads) or anti-c-Myc antibody; western blot

Amino acid sequences for entries named in this document (tags omitted).
UniProt P01106: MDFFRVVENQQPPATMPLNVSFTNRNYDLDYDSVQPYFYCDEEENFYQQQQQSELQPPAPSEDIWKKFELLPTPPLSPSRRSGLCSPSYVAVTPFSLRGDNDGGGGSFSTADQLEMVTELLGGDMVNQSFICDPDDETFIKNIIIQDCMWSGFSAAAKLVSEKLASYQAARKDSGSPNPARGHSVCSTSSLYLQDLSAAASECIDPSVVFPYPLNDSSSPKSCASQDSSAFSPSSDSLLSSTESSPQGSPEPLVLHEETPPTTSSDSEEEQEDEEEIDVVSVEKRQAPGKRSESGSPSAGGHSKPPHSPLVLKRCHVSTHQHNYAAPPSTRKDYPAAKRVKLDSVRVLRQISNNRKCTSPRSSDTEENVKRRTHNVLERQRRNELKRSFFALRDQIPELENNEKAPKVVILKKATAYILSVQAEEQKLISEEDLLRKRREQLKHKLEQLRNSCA
UniProt Q9BYV6: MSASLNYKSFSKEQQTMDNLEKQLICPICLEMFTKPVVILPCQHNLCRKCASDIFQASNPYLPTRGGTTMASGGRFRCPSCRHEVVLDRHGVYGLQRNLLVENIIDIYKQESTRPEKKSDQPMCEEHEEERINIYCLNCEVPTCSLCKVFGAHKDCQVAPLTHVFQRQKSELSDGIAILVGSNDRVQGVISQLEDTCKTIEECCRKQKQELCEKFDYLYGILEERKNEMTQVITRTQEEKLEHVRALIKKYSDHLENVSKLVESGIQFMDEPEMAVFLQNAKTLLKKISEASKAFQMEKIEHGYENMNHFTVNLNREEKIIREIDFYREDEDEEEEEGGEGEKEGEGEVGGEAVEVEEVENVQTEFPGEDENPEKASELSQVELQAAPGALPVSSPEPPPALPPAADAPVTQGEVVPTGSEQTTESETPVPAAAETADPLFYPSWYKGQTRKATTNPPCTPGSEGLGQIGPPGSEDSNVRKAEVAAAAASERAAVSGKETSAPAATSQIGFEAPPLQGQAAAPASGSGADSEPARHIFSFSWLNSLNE

binding (His-tagged c-Myc) | binding [1] | Substance
binds |  | HA-tagged TRIM55 (Tripartite motif containing 55) (from UniProt Q9BYV6 1-548)
 | binds | TRIM55 (Tripartite motif containing 55) in SW620 and SW480 cells (from UniProt Q9BYV6 1-548)

Source: PMC10315715
